One substance from PMC12181301 can be followed below.

The chains behind the UniProt entries cited, without tags or fusion partners.
UniProt P02340: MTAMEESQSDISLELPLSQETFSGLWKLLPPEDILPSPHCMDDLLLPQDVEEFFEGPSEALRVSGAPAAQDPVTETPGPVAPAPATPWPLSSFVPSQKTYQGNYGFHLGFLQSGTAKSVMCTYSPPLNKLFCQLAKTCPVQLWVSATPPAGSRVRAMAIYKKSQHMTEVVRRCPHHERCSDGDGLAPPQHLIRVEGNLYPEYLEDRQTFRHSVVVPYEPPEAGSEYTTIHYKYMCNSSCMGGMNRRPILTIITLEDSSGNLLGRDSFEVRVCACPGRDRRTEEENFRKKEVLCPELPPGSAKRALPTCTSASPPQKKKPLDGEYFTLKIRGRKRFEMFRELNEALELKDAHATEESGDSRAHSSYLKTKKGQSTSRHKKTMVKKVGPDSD

No constants are given. Whether binding was seen depends on the method and setting. Binding seen in cells or lysates may run through a third protein. A yes stands for co-enrichment or nearness to the bait. Other partners may have been found.

The assay concerns the target T1, Iron-Sulfur Cluster Assembly Enzyme (ISCU) (mouse (endogenous in RAW264.7 or BMDM)) (UniProt Q9D7P6).
T1 sequence: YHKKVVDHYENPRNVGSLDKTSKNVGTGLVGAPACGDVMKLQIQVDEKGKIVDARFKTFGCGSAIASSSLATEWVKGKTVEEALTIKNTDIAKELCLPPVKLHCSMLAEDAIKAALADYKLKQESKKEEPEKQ
The assay is described as follows: affinity purification with mass spectrometry; lysates of M0 and M2 macrophages incubated with anti-ISCU antibody, then protein A/G agarose for 4 h; bound proteins eluted and identified by mass spectrometry.

On to p53 protein (from UniProt P02340 1-390), for which the binding entry is listed as “binds”.
